Measurements from publication doi:10.1101/040410.
These are yes or no findings as the source states them, for the method shown. In cells and extracts the contact can be indirect. Some entries that bind do so weakly or less than the wild type. For part of these data: Tags and fused reporters may be left off the sequences shown.

Sequences of proteins named here, by UniProt entry; tags and fusion partners are left off. A change or cut given only in a name is not applied to a line headed by its entry. Residues count along the entry.
UniProt P01135, 24-160: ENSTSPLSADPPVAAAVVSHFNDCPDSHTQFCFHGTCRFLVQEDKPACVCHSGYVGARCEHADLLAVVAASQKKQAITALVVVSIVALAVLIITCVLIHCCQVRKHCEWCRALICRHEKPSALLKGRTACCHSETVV
UniProt P01135, whole entry, looked up, stated change not applied: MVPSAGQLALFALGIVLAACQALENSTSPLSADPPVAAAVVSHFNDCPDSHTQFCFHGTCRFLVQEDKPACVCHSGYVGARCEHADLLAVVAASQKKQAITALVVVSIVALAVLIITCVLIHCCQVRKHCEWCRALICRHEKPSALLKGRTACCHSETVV

Experiments:
Experiment in all cases: co-IP
HA-Vangl2 = target: T1, HA-Vangl2 (UniProt Q91ZD4)
T1 sequence: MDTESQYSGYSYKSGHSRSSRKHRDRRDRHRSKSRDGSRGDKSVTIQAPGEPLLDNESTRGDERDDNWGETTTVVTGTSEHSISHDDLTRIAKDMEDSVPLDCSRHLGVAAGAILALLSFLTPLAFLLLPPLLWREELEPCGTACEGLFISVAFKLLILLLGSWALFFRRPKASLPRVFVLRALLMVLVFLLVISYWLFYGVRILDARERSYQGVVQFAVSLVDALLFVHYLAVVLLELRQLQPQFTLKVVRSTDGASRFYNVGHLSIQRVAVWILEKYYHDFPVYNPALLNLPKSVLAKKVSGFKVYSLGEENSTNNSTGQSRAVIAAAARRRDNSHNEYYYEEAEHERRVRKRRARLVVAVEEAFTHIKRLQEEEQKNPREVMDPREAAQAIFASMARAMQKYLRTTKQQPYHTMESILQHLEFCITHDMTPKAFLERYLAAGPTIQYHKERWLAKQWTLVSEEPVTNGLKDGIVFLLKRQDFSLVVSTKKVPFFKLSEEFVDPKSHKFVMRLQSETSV

pro/HA-TGFα V160G mutant = pro/HA-TGFα V160G mutant (UniProt P01135)
[1] = target: pro/HA-TGFα wild type (HA-tagged transmembrane precursor of transforming growth factor alpha) (UniProt P01135)

B1: Cornichon-1 (protein, UniProt O95406 1-144)
chain: MAFTFAAFCYMLALLLTAALIFFAIWHIIAFDELKTDYKNPIDQCNTLNPLVLPEYLIHAFFCVMFLCAAEWLTLGLNMPLLAYHIWRYMSRPVMSGPGLYDPTTIMNADILAYCQKEGWCKLAFYLLAFFYYLYGMIYVLVSS
With B1 the binding (HA-Vangl2) was “no binding”, the binding (pro/HA-TGFα V160G mutant) was “binds” and the binding [1] was “binds”.
